Assay results as given in the supplement of paper PMC12067093, “Discovery and optimisation of a covalent ligand for TRIM25 and its application to targeted protein ubiquitination” (Chemical Science, 2025).
This is one part of the list.
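Note: competitive chemoproteomic profiling in live THP-1 cells with an iodoacetamide desthiobiotin (IA-DTB) probe, comparing probe-labelled peptide intensities in compound-treated cells against DMSO-treated controls.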

What follows are targets tested with CC1Cc2ccccc2N1C(=O)C1CCCN(C1)C(=O)CCl (mixture of isomers) [TRIM25 ligand 11 (diastereomer mixture)] (assay: probe-labelled cysteine peptide fold change vs DMSO (competition) (log2 fold change); higher = less target engagement (more negative = stronger competition)). Settings: 10 µM; THP-1; incubation time: 4 h.
“CROT_Q9UKG9_210_AFVFDVIHEGCLVTPPELLR (UniProt Q9UKG9)” was tested, and the “probe-labelled cysteine peptide fold change” value was -0.043. In the case of “CORO7_P57737_363_KAVEFHEDLFPDTAGCVPATDPHSWWAGDNQQVQK (UniProt P57737)”, the “probe-labelled cysteine peptide fold change” value is reported as -0.338. For “CTNNA2_P26232_322_LESIISGAALMADSSCTR (UniProt P26232)”, the “probe-labelled cysteine peptide fold change” value was 0.16. With “CRBN_Q96SW2_234_FHCANLTSWPR (UniProt Q96SW2)” the “probe-labelled cysteine peptide fold change” value was 0.147. “CPSF2_Q9P2I0_335_VVLASQPDLECGFSR (UniProt Q9P2I0)” was tested, and the “probe-labelled cysteine peptide fold change” value was -0.0499. “CRIP1_P50238_56_TLTSGGHAEHEGKPYCNHPCYAAMFGPK (UniProt P50238)” was tested, and the “probe-labelled cysteine peptide fold change” value was -0.889. “CPNE3_O75131_202_ISLNSLCYGDMDK (UniProt O75131)” was tested, and the “probe-labelled cysteine peptide fold change” value was 0.0223. In the case of “CORO7_P57737_75_VAHLGCHSDLVTDLDFSPFDDFLLATGSADR (UniProt P57737)”, the “probe-labelled cysteine peptide fold change” value is reported as 0.031. “CORO1B_Q9BR76_25_NDQCYEDIR (UniProt Q9BR76)” was tested, and the “probe-labelled cysteine peptide fold change” value was 0.0311. For “CRYL1_Q9Y2S2_141_QCIVAHPVNPPYYIPLVELVPHPETAPTTVDR (UniProt Q9Y2S2)”, the “probe-labelled cysteine peptide fold change” value was 0.0328. In the case of “CPSF2_Q9P2I0_311_HLSLCHGLSDLAR (UniProt Q9P2I0)”, the “probe-labelled cysteine peptide fold change” value is reported as 0.192. With “CPT2_P23786_326_VDSAVFCLCLDDFPIK (UniProt P23786)” the “probe-labelled cysteine peptide fold change” value was 0.237. “CSRP1_P21291_25_TVYFAEEVQCEGNSFHK (UniProt P21291)” was tested, and the “probe-labelled cysteine peptide fold change” value was 0.153. “CTCF_P49711_439+442_FHCPHCDTVIAR (UniProt P49711)” was tested, and the “probe-labelled cysteine peptide fold change” value was -0.0628. For “CPNE8_Q86YQ8_118_HDFLGQVFCTLGEIVGSQGSR (UniProt Q86YQ8)”, the “probe-labelled cysteine peptide fold change” value was 0.132. For “CRELD2_Q6UXH1_31_KPTPCHR (UniProt Q6UXH1)”, the “probe-labelled cysteine peptide fold change” value was -0.0101. “CPSF1_Q10570_324_ITLDCAQATFISYDK (UniProt Q10570)” was tested, and the “probe-labelled cysteine peptide fold change” value was 0.00457. For “CPSF2_Q9P2I0_765_IGLEGCLCQDFYR (UniProt Q9P2I0)”, the “probe-labelled cysteine peptide fold change” value was -0.0679. “CPSF1_Q10570_149_CAAMLVYGTR (UniProt Q10570)” was tested, and the “probe-labelled cysteine peptide fold change” value was 0.00921. For “CS_O75390_101_GFSIPECQK (UniProt O75390)”, the “probe-labelled cysteine peptide fold change” value was -0.083. “CTNNA1_P35221_116_AAAGEFADDPCSSVK (UniProt P35221)” was tested, and the “probe-labelled cysteine peptide fold change” value was 0.134. With “CORO1A_P31146_192+195_DGGLICTSCR (UniProt P31146)” the “probe-labelled cysteine peptide fold change” value was -0.041. For “CRIP2_P52943_57_PCYATLFGPK (UniProt P52943)”, the “probe-labelled cysteine peptide fold change” value was 0.0354. For “CPNE8_Q86YQ8_196_SNEDGSFTICHK (UniProt Q86YQ8)”, the “probe-labelled cysteine peptide fold change” value was 0.165. “CPNE1_Q99829_53_NCSSPEFSK (UniProt Q99829)” was tested, and the “probe-labelled cysteine peptide fold change” value was -0.0922. In the case of “CPNE8_Q86YQ8_143_CGTIILTAEELNCCR (UniProt Q86YQ8)”, the “probe-labelled cysteine peptide fold change” value is reported as -0.0909. In the case of “CTCF_P49711_472_YCDAVFHER (UniProt P49711)”, the “probe-labelled cysteine peptide fold change” value is reported as -0.00144. For “CSRP1_P21291_167_GLESTTLADKDGEIYCK (UniProt P21291)”, the “probe-labelled cysteine peptide fold change” value was -0.27. With “CPSF3_Q9UKF6_655_TVECEEGSEDDESLR (UniProt Q9UKF6)” the “probe-labelled cysteine peptide fold change” value was 0.139. With “CRBN_Q96SW2_188_VQILPECVLPSTMSAVQLESLNK (UniProt Q96SW2)” the “probe-labelled cysteine peptide fold change” value was -0.294. For “CSNK2A1_P68400_147_ALDYCHSMGIMHR (UniProt P68400)”, the “probe-labelled cysteine peptide fold change” value was 0.203. With “CPNE3_O75131_15_VALNVSCANLLDK (UniProt O75131)” the “probe-labelled cysteine peptide fold change” value was 0.0534. For “CPNE3_O75131_31_SDPLCVLFLNTSGQQWYEVER (UniProt O75131)”, the “probe-labelled cysteine peptide fold change” value was 0.0773. With “CTBP2_P56545_318_DAPNLICTPHTAWYSEQASLEMR (UniProt P56545)” the “probe-labelled cysteine peptide fold change” value was -0.0315. For “CTDP1_Q9Y5B0_700_VLQAQECGHLHVVNPDWLWSCLER (UniProt Q9Y5B0)”, the “probe-labelled cysteine peptide fold change” value was -0.231. In the case of “CTNNBL1_Q8WYA6_320_RHNPSTAEEQEMMENLFDSLCSCLMLSSNR (UniProt Q8WYA6)”, the “probe-labelled cysteine peptide fold change” value is reported as 0.0709. “CORO1A_P31146_195_DGGLICTSCR (UniProt P31146)” was tested, and the “probe-labelled cysteine peptide fold change” value was -0.0266. With “CSDE1_O75534_645_GDCLQK (UniProt O75534)” the “probe-labelled cysteine peptide fold change” value was 0.0331. With “CTNNAL1_Q9UBT7_104_EEINIACIEAK (UniProt Q9UBT7)” the “probe-labelled cysteine peptide fold change” value was -0.0933.

Same assay, conditions: 50 µM; THP-1; incubation time: 4 h
“CROT_Q9UKG9_210_AFVFDVIHEGCLVTPPELLR (UniProt Q9UKG9)” was tested, and the “probe-labelled cysteine peptide fold change” value was 0.0924. For “CORO7_P57737_363_KAVEFHEDLFPDTAGCVPATDPHSWWAGDNQQVQK (UniProt P57737)”, the “probe-labelled cysteine peptide fold change” value was -0.389. For “CTNNA2_P26232_322_LESIISGAALMADSSCTR (UniProt P26232)”, the “probe-labelled cysteine peptide fold change” value was -0.132. “CRBN_Q96SW2_234_FHCANLTSWPR (UniProt Q96SW2)” was tested, and the “probe-labelled cysteine peptide fold change” value was 0.121. With “CPSF2_Q9P2I0_335_VVLASQPDLECGFSR (UniProt Q9P2I0)” the “probe-labelled cysteine peptide fold change” value was 0.0252. With “CRIP1_P50238_56_TLTSGGHAEHEGKPYCNHPCYAAMFGPK (UniProt P50238)” the “probe-labelled cysteine peptide fold change” value was -1.02. With “CPNE3_O75131_202_ISLNSLCYGDMDK (UniProt O75131)” the “probe-labelled cysteine peptide fold change” value was 0.0292. “CORO7_P57737_75_VAHLGCHSDLVTDLDFSPFDDFLLATGSADR (UniProt P57737)” was tested, and the “probe-labelled cysteine peptide fold change” value was 0.0305. For “CORO1B_Q9BR76_25_NDQCYEDIR (UniProt Q9BR76)”, the “probe-labelled cysteine peptide fold change” value was -0.0524. “CRYL1_Q9Y2S2_141_QCIVAHPVNPPYYIPLVELVPHPETAPTTVDR (UniProt Q9Y2S2)” was tested, and the “probe-labelled cysteine peptide fold change” value was -0.0222. For “CPSF2_Q9P2I0_311_HLSLCHGLSDLAR (UniProt Q9P2I0)”, the “probe-labelled cysteine peptide fold change” value was -0.283. With “CPT2_P23786_326_VDSAVFCLCLDDFPIK (UniProt P23786)” the “probe-labelled cysteine peptide fold change” value was 0.111. For “CSRP1_P21291_25_TVYFAEEVQCEGNSFHK (UniProt P21291)”, the “probe-labelled cysteine peptide fold change” value was -0.0744. For “CTCF_P49711_439+442_FHCPHCDTVIAR (UniProt P49711)”, the “probe-labelled cysteine peptide fold change” value was 0.00661. In the case of “CPNE8_Q86YQ8_118_HDFLGQVFCTLGEIVGSQGSR (UniProt Q86YQ8)”, the “probe-labelled cysteine peptide fold change” value is reported as 0.595. In the case of “CRELD2_Q6UXH1_31_KPTPCHR (UniProt Q6UXH1)”, the “probe-labelled cysteine peptide fold change” value is reported as 0.103. In the case of “CPSF1_Q10570_324_ITLDCAQATFISYDK (UniProt Q10570)”, the “probe-labelled cysteine peptide fold change” value is reported as 0.201. In the case of “CPSF2_Q9P2I0_765_IGLEGCLCQDFYR (UniProt Q9P2I0)”, the “probe-labelled cysteine peptide fold change” value is reported as -0.0456. For “CPSF1_Q10570_149_CAAMLVYGTR (UniProt Q10570)”, the “probe-labelled cysteine peptide fold change” value was -0.00678. “CS_O75390_101_GFSIPECQK (UniProt O75390)” was tested, and the “probe-labelled cysteine peptide fold change” value was -0.11. With “CTNNA1_P35221_116_AAAGEFADDPCSSVK (UniProt P35221)” the “probe-labelled cysteine peptide fold change” value was 0.0576. “CORO1A_P31146_192+195_DGGLICTSCR (UniProt P31146)” was tested, and the “probe-labelled cysteine peptide fold change” value was -0.0766. For “CRIP2_P52943_57_PCYATLFGPK (UniProt P52943)”, the “probe-labelled cysteine peptide fold change” value was -0.135. In the case of “CPNE8_Q86YQ8_196_SNEDGSFTICHK (UniProt Q86YQ8)”, the “probe-labelled cysteine peptide fold change” value is reported as 0.0412. With “CPNE1_Q99829_53_NCSSPEFSK (UniProt Q99829)” the “probe-labelled cysteine peptide fold change” value was -0.138. With “CPNE8_Q86YQ8_143_CGTIILTAEELNCCR (UniProt Q86YQ8)” the “probe-labelled cysteine peptide fold change” value was -0.0884. For “CTCF_P49711_472_YCDAVFHER (UniProt P49711)”, the “probe-labelled cysteine peptide fold change” value was 0.111. “CSRP1_P21291_167_GLESTTLADKDGEIYCK (UniProt P21291)” was tested, and the “probe-labelled cysteine peptide fold change” value was -0.117. For “CPSF3_Q9UKF6_655_TVECEEGSEDDESLR (UniProt Q9UKF6)”, the “probe-labelled cysteine peptide fold change” value was 0.0526. In the case of “CRBN_Q96SW2_188_VQILPECVLPSTMSAVQLESLNK (UniProt Q96SW2)”, the “probe-labelled cysteine peptide fold change” value is reported as 0.216. For “CSNK2A1_P68400_147_ALDYCHSMGIMHR (UniProt P68400)”, the “probe-labelled cysteine peptide fold change” value was 0.0427. “CPNE3_O75131_15_VALNVSCANLLDK (UniProt O75131)” was tested, and the “probe-labelled cysteine peptide fold change” value was 0.111. For “CPNE3_O75131_31_SDPLCVLFLNTSGQQWYEVER (UniProt O75131)”, the “probe-labelled cysteine peptide fold change” value was 0.123. In the case of “CTBP2_P56545_318_DAPNLICTPHTAWYSEQASLEMR (UniProt P56545)”, the “probe-labelled cysteine peptide fold change” value is reported as -0.0653. For “CTDP1_Q9Y5B0_700_VLQAQECGHLHVVNPDWLWSCLER (UniProt Q9Y5B0)”, the “probe-labelled cysteine peptide fold change” value was 0.0221. With “CTNNBL1_Q8WYA6_320_RHNPSTAEEQEMMENLFDSLCSCLMLSSNR (UniProt Q8WYA6)” the “probe-labelled cysteine peptide fold change” value was -0.223. With “CORO1A_P31146_195_DGGLICTSCR (UniProt P31146)” the “probe-labelled cysteine peptide fold change” value was 0.0661. With “CSDE1_O75534_645_GDCLQK (UniProt O75534)” the “probe-labelled cysteine peptide fold change” value was 0.0924. For “CTNNAL1_Q9UBT7_104_EEINIACIEAK (UniProt Q9UBT7)”, the “probe-labelled cysteine peptide fold change” value was 0.172.
